Where a name gives a salt, the structure may show the parent alone. The list shows a part of the results. The calls rarely recur for the same compound in another form.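 In K562 cells expressing nanoluciferase-fused kinases, luminescence was recorded at 4 h intervals between 2 and 18 h, normalized as percent of control with DMSO at 100% and a positive control at 0%. A significant (2 sigma) signal drop marks a time point as decreased. The authors' rule for a hit is not shown and takes in more than the number of time points.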
The compounds below were run against PAK4 (UniProt O96013) (assay: kinase-Nluc reporter destabilization hit call (1 = scored as downregulated) (binary); higher = compound decreases kinase abundance). Conditions: K562; 2-18 h.

Chains of the proteins cited; added tags and fusions are not shown. Lines headed by an entry give the natural chain unless they say otherwise; changes in a name come on top.
UniProt O96013: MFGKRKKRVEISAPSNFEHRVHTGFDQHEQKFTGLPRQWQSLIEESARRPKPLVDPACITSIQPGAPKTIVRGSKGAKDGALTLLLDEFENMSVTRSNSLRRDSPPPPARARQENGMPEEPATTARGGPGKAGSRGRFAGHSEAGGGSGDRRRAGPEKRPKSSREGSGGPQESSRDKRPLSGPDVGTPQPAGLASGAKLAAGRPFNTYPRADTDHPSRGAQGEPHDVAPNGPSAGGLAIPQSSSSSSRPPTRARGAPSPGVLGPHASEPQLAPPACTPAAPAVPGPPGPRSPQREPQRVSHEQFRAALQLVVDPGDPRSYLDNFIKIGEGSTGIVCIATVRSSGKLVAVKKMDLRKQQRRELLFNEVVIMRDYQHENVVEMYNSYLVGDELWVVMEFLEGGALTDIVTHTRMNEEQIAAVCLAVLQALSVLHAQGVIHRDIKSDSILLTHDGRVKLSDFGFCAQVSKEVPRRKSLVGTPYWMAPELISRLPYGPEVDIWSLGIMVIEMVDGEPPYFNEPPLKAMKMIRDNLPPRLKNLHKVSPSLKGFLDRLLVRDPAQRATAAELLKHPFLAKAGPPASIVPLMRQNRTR

kinase-Nluc reporter destabilization hit call, inactive:
CN(C)c1nc2c(Br)c(Br)c(Br)c(Br)c2n1CC(=O)O (10 µM) 0
COc1cc(N2CCC(N(C)C)CC2)ccc1Nc1ncc(Cl)c(Nc2ccccc2P(C)(C)=O)n1 (2.5 µM) 0
CC(C)C[C@H](NC(=O)[C@H](CCCCN)NC(=O)[C@H](CO)NC(=O)[C@@H](N)CC(C)C)C(N)=O [LSKL, Inhibitor of Thrombospondin (TSP-1) (TFA)] (10 µM) 0
O=C(Nc1ccc(Cl)c(Cl)c1)Nc1ccc2nnsc2c1 (10 µM) 0
CC(C)Oc1ccc(-c2cnc3c(-c4ccnc5ccccc45)cnn3c2)cc1 (10 µM) 0
O=C(CCCCCn1cc(Nc2ncc(Cl)c(Nc3ccc(Cl)cc3)n2)cn1)NO (2.5 µM) 0
CC(=O)NCCc1c[nH]c2ccc(O)cc12 [N-Acetyl-5-hydroxytryptamine] (10 µM) 0
O=C(c1ccc(Nc2nccc(-c3cc4ccccc4s3)n2)cc1)N1CCC(N2CCCC2)CC1 (2.5 µM) 0
C=CC(=O)N1CCC[C@@H](n2nc(C(=O)Nc3ccc(CC(=O)N(C)C)c(C)c3C)c3c(N)ncnc32)C1 (10 µM) 0
CC(CCc1ccccn1)(CCc1ccccn1)C(=O)c1ccccc1 (10 µM) 0
CC[C@@H]1[C@H](F)C(=O)N[C@@H]1COc1nccc2cc(C(N)=O)c(OC)cc12 (10 µM) 0
Nc1cc(C(F)F)c(-c2nc(N3C4CCC3COC4)nc(N3C4CCC3COC4)n2)cn1 (2.5 µM) 0
Oc1ccccc1C(=S)N1CCCC1 (10 µM) 0
COc1ccc(-n2c(C)c([N+](=O)[O-])c3ccc(O)cc32)cc1 (10 µM) 0
CN(C)Cc1cccc(N=C(c2ccccc2)c2c(O)[nH]c3cc(C(N)=O)ccc23)c1 (10 µM) 0
CCCCNC(=N)NC(=N)N [Buformin (hydrochloride)] (2.5 µM) 0
O=c1ccoc2cc(O)ccc12 [7-Hydroxy-4H-chromen-4-one] (10 µM) 0
C=CC(=O)Nc1cccc(-n2c(=O)cc(C)c3cnc(Nc4ccc(OCCN(C)C)cc4OC)nc32)c1 (10 µM) 0
O=c1[nH]ccc2cc(OC3CCNCC3)ccc12 (10 µM) 0
CCCCOc1ccc(CC/C=C2\SC(=O)N(CCN)C2=O)cc1 [K145 (hydrochloride)] (2.5 µM) 0
CC(C)(O)[C@@H]1CC[C@](C)([C@H]2[C@@H](O)C[C@@]3(C)[C@@H]4C[C@H](O[C@@H]5O[C@H](CO)[C@@H](O)[C@H](O)[C@H]5O)[C@H]5C(C)(C)[C@@H](O[C@@H]6OC[C@@H](O)[C@H](O)[C@H]6O[C@@H]6O[C@H](CO)[C@@H](O)[C@H](O)[C@H]6O)CC[C@@]56C[C@@]46CC[C@]23C)O1 [Astragaloside VI] (10 µM) 0
O=C1NC(=O)C(c2cn(-c3ccccc3)nc2-c2ccc(F)cc2)N1 (stereo unspecified) (10 µM) 0
C[C@@H]1COCCN1c1cc(C2([S@](C)(=N)=O)CC2)nc(-c2cc[nH]c3nccc2-3)n1 [Ceralasertib] (2.5 µM) 0
CN(C)Cc1cccc(N=C(c2ccccc2)c2c(O)[nH]c3cc(C(=O)N(C)C)ccc23)c1 (10 µM) 0
CN1CCN(CCCNc2ncc(Cl)c(-c3cc4c(C(=O)NC5CC5)cccc4s3)n2)CC1 (10 µM) 0
CC[C@H](Nc1ncnc2[nH]cnc12)c1oc2ccccc2c(=O)c1-c1cccc(F)c1 [Tenalisib] (10 µM) 0
O=C1NC(=O)C(c2cnc3ccccn23)=C1c1cn2c3c(cc(F)cc13)CN(C(=O)N1CCCCC1)CC2 (2.5 µM) 0
COc1c(C)c(C(=O)c2ccc(N)c(C(=O)O)c2)n2ccccc12 (10 µM) 0
N#Cc1ccc(-c2c(-c3ncn[nH]3)sc(N3CCOCC3)c2C#N)c(F)c1 (10 µM) 0
N#C/C(=C(/N)Sc1ccc(N)cc1)c1ccccc1C(F)(F)F (10 µM) 0
O=C(Nc1ccc(Cl)cc1)C1CCCN(C(=O)c2cccc(-c3ccco3)c2)C1 (stereo unspecified) (2.5 µM) 0

9 compounds already listed, sorted by SMILES length, high to low:
kinase-Nluc reporter destabilization hit call, inactive:
CC(C)C[C@H](NC(=O)[C@H](CCCCN)NC(=O)[C@H](CO)NC(=O)[C@@H](N)CC(C)C)C(N)=O [LSKL, Inhibitor of Thrombospondin (TSP-1) (TFA)] (10 µM) 0
O=C1NC(=O)C(c2cnc3ccccn23)=C1c1cn2c3c(cc(F)cc13)CN(C(=O)N1CCCCC1)CC2 (2.5 µM) 0
N#Cc1ccc(-c2c(-c3ncn[nH]3)sc(N3CCOCC3)c2C#N)c(F)c1 (10 µM) 0
COc1ccc(-n2c(C)c([N+](=O)[O-])c3ccc(O)cc32)cc1 (10 µM) 0
O=C1NC(=O)C(c2cn(-c3ccccc3)nc2-c2ccc(F)cc2)N1 (stereo unspecified) (10 µM) 0
COc1c(C)c(C(=O)c2ccc(N)c(C(=O)O)c2)n2ccccc12 (10 µM) 0
CC(CCc1ccccn1)(CCc1ccccn1)C(=O)c1ccccc1 (10 µM) 0
O=C(Nc1ccc(Cl)c(Cl)c1)Nc1ccc2nnsc2c1 (10 µM) 0
Oc1ccccc1C(=S)N1CCCC1 (10 µM) 0

— the supplement of paper PMC12823440, “Inhibitors supercharge kinase turnover through native proteolytic circuits” (Nature, 2025)
